According to patent US20230293560A1, “METHOD FOR MODULATING THE BLADDER MICROBIOME TO IMPROVE BLADDER HEALTH” (Kimberly-Clark Worldwide, Inc., priority 2020, published 2023):
For at least one compound, name, drawing or mass did not settle the structure.

Assays:
Assay in all cases: High throughput assay screening of prebiotics
[1] = system: L. crispatus; format: cell-based, Lactobacillus crispatus; conditions: 2% w/v prebiotic in API 50 CHL media
Experimental: (§1) Most of the prebiotic compounds were initially tested in a high throughput assay screening process, described further in the Test Methods section herein, but three prebiotics (as noted in Table 3) were tested using a plate assay screening process as described in the Test Methods section herein. The prebiotics were tested against the commensal bacterial species of Lactobacillus crispatus, Lactobacillus gasseri, and Lactobacillus jensenii and against the pathogenic bacterial species of Streptococcus anginosus and Enterococcus faecalis as shown in Table 2. The bacterial species were taken from different sources, listed as culture collection, bladder, and vagina.
(§2) The results of the assay plate screening of the prebiotic compounds of Table 1 against the bacterial species of Table 2 is documented in Table 3 with the results being described by the following legend: • ++ if growth and fermentation was equal to or greater than the positive control • + if growth and fermentation was less than the positive control • […] if weak or no growth or fermentation • NT if not tested Some codes were not tested based on the use or non-use by the bacteria, as a way to efficiently move through the assay plate screening to the competition assay, described below.
• 1. Create a 2% w/v stock of prebiotic or positive control (glucose/dextrose) to be tested in API 50 CHL media (Biomerieux, Marcy-I'Étoile, France). API 50 CHL media contains minimal amounts of carbon for growth, and a bromocresol purple as a pH indicator of fermentation. Filter sterilize media with a […]. Store at 4-6° C. until use. • 2. Add 180 μL of media containing the prebiotic to a sterile, flat bottom 96-well microtiter plate (Corning, Corning, NY). • 3. From a freezer stock subculture the bacteria twice into De Man, Rogosa and Sharpe (MRS) broth (BD Difco, Becton Dickinson, Franklin Lakes, NJ), 37° C., stationary, anaerobic, overnight. • 4. From the last subculture, plate onto an MRS agar plate (Teknova, Hollister, CA) and grow 37° C., stationary, anaerobic, overnight. • 5. Create a bacterial suspension by using a sterile tipped swab to transfer colonies of bacteria into a PBS suspension blank to a 0.5 MacFarland (S. anginosus or E. faecalis) or a 1 MacFarland (Lactobacillus species) from the MRS agar plate. • 6. Enumerate the starting culture. • 7. Inoculate the media alone and media containing the prebiotic or positive control with 20 μL of the bacterial suspension. • 8. Place the plate into a spectrophotometer (Molecular Devices, San Jose, CA) and read the plate every 20 minutes for 24-48 hours. Read wavelengths (OD 430, OD 590, and OD 660). A color change to yellow caused by a drop in pH will be read by an increase in the OD430 value and a decrease in the OD590 value and is indicative of bacterial fermentation. […]

[2] = system: L. gasseri; format: cell-based, Lactobacillus gasseri; conditions: 2% w/v prebiotic in API 50 CHL media
Experimental: as §1, §2
• 1. Create a 2% w/v stock of prebiotic or positive control (glucose/dextrose) to be tested in API 50 CHL media (Biomerieux, Marcy-I'Étoile, France). API 50 CHL media contains minimal amounts of carbon for growth, and a bromocresol purple as a pH indicator of fermentation. Filter sterilize media with a […]. Store at 4-6° C. until use. • 2. Add 180 μL of media containing the prebiotic to a sterile, flat bottom 96-well microtiter plate (Corning, Corning, NY). • 3. […] Place the plate into a spectrophotometer (Molecular Devices, San Jose, CA) and read the plate every 20 minutes for 24-48 hours. Read wavelengths (OD 430, OD 590, and OD 660). A color change to yellow caused by a drop in pH will be read by an increase in the OD430 value and a decrease in the OD590 value and is indicative of bacterial fermentation. […]

[3] = system: L. jensenii; format: cell-based, Lactobacillus jensenii; conditions: L. jensenii KC17-4347-1, Bladder; 2% w/v prebiotic in API 50 CHL media
Experimental: as §1, with “vagina. […]” for “vagina.”
• 1. […] Place the plate into a spectrophotometer (Molecular Devices, San Jose, CA) and read the plate every 20 minutes for 24-48 hours. Read wavelengths (OD 430, OD 590, and OD 660). A color change to yellow caused by a drop in pH will be read by an increase in the OD430 value and a decrease in the OD590 value and is indicative of bacterial fermentation. […]

O=C(O)CC(O)C(=O)O (racemic) [DL-Malic acid, DL-Malic acid (Malate)]
−: growth and fermentation vs positive control, Lc-2 ([1]; L. crispatus KC16-7134-3C, Bladder) | growth and fermentation vs positive control, Lc-3 ([1]; L. crispatus KC18-1173-1, Bladder) | growth and fermentation vs positive control, Lc-4 ([1]; L. crispatus KC18-1174-1, Vagina) | growth and fermentation vs positive control, Lg-1 ([2]; L. gasseri KC16-7135-1, Bladder) | growth and fermentation vs positive control, Lg-2 ([2]; L. gasseri KC16-7171-1, Bladder) | growth and fermentation vs positive control, Lg-3 ([2]; L. gasseri KC18-1131-2, Bladder) | growth and fermentation vs positive control, Lj-2 [3]

OC[C@@H](O)[C@@H](O[C@H]1O[C@H](CO)[C@@H](O)[C@H](O)[C@H]1O)[C@H](O)[C@@H](O)CO [Maltitol]
−: growth and fermentation vs positive control, Lc-1 ([1]; L. crispatus ATCC 33820, Culture Collection)
